{"source": "the supplement of paper PMC8728848", "binders": {"B1": {"name": "EULS2 M1 (Oryza sativa) (protein)", "chain": "MVYCRANPNYAMTARNGAVVLAPANPKDEYQHWIKDMRWSTSIKDEEGYPAFALVNKATGQAIKHSLGQSHPVRLVPYNPEVMDESVLWTESRDVGNGFRCIRMVNNIYLNFDAFHGDKYHGGVRDGTDIVLWKLCEGDNQRWKIQPYYILEQKLISEEDLNSAVDHHHHHH"}}, "assay_in_all_cases": "glycan array binding signal (z-score within array); higher = stronger binding", "details_in_all_cases": "glycan notation: IUPAC condensed, linker removed", "key": {"[1]": {"biological_target": "Fuc(a1-2)Gal(b1-4)[Fuc(a1-3)]GlcNAc(b1-2)Man(a1-3)[Fuc(a1-2)Gal(b1-4)[Fuc(a1-3)]GlcNAc(b1-2)Man(a1-6)]Man(b1-4)GlcNAc(b1-4)[Fuc(a1-6)]GlcNAc", "method_in_brief": "(§1)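 Glycan array data came from 3228 arrays in the Consortium for Functional Glycomics database, and only arrays with an available protein sequence were kept. Glycan names were put into IUPAC-condensed notation, and columns mapping to the same glycan were averaged. The binding signal is a within-array Z-score, averaged across arrays of one protein sequence run at different concentrations or buffers and across linkers. A negative Z-score can be read as non-binding.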"}, "[2]": {"biological_target": "Fuc(a1-2)Gal(b1-4)[Fuc(a1-3)]GlcNAc(b1-2)[Fuc(a1-2)Gal(b1-4)[Fuc(a1-3)]GlcNAc(b1-4)]Man(a1-3)[Fuc(a1-2)Gal(b1-4)[Fuc(a1-3)]GlcNAc(b1-2)Man(a1-6)]Man(b1-4)GlcNAc(b1-4)GlcNAc", "method_in_brief": "as §1"}, "[3]": {"biological_target": "Fuc(a1-2)Gal(b1-4)[Fuc(a1-3)]GlcNAc(b1-3)Gal(b1-4)[Fuc(a1-3)]GlcNAc", "method_in_brief": "as §1"}, "[4]": {"biological_target": "Fuc(a1-2)Gal(b1-4)[Fuc(a1-3)]GlcNAc(b1-3)Gal(b1-4)[Fuc(a1-3)]GlcNAc(b1-3)Gal(b1-4)[Fuc(a1-3)]GlcNAc", "method_in_brief": "as §1"}, "[5]": {"biological_target": "Fuc(a1-2)Gal(b1-4)[Fuc(a1-3)]GlcNAc(b1-3)GalNAc", "method_in_brief": "as §1"}, "[6]": {"biological_target": "Fuc(a1-2)Gal(b1-4)[Fuc(a1-3)]GlcNAc(b1-3)[Neu5Ac(a2-6)Gal(b1-4)GlcNAc(b1-6)]Gal(b1-4)Glc", "method_in_brief": "as §1"}, "[7]": {"biological_target": "Fuc(a1-2)Gal3S(b1-4)GlcNAc", "method_in_brief": "as §1"}, "[8]": {"biological_target": "Fuc(a1-2)Gal6S(b1-3)GlcNAc", "method_in_brief": "as §1"}, "[9]": {"biological_target": "Fuc(a1-2)Gal6S(b1-3)GlcNAc6S", "method_in_brief": "as §1"}, "[10]": {"biological_target": "Fuc(a1-2)Gal6S(b1-4)Glc", "method_in_brief": "as §1"}, "[11]": {"biological_target": "Fuc(a1-2)Gal6S(b1-4)Glc6S", "method_in_brief": "as §1"}, "[12]": {"biological_target": "Fuc(a1-2)[Gal(a1-3)]Gal", "method_in_brief": "as §1"}, "[13]": {"biological_target": "Fuc(a1-2)[Gal(a1-3)]Gal(b1-3)GalNAc", "method_in_brief": "as §1"}, "[14]": {"biological_target": "Fuc(a1-2)[Gal(a1-3)]Gal(b1-3)GalNAc(b1-3)Gal(a1-4)Gal(b1-4)Glc", "method_in_brief": "as §1"}, "[15]": {"biological_target": "Fuc(a1-2)[Gal(a1-3)]Gal(b1-3)GlcNAc", "method_in_brief": "as §1"}, "[16]": {"biological_target": "Fuc(a1-2)[Gal(a1-3)]Gal(b1-3)GlcNAc(b1-2)Man(a1-3)[Fuc(a1-2)[Gal(a1-3)]Gal(b1-3)GlcNAc(b1-2)Man(a1-6)]Man(b1-4)GlcNAc(b1-4)GlcNAc", "method_in_brief": "as §1"}, "[17]": {"biological_target": "Fuc(a1-2)[Gal(a1-3)]Gal(b1-3)GlcNAc(b1-2)Man(a1-3)[Fuc(a1-2)[Gal(a1-3)]Gal(b1-3)GlcNAc(b1-2)Man(a1-6)]Man(b1-4)GlcNAc(b1-4)[Fuc(a1-6)]GlcNAc", "method_in_brief": "as §1"}, "[18]": {"biological_target": "Fuc(a1-2)[Gal(a1-3)]Gal(b1-3)GlcNAc(b1-3)GalNAc", "method_in_brief": "as §1"}, "[19]": {"biological_target": "Fuc(a1-2)[Gal(a1-3)]Gal(b1-3)GlcNAc(b1-6)GalNAc", "method_in_brief": "as §1"}, "[20]": {"biological_target": "Fuc(a1-2)[Gal(a1-3)]Gal(b1-4)Glc", "method_in_brief": "as §1"}, "[21]": {"biological_target": "Fuc(a1-2)[Gal(a1-3)]Gal(b1-4)GlcNAc", "method_in_brief": "as §1"}, "[22]": {"biological_target": "Fuc(a1-2)[Gal(a1-3)]Gal(b1-4)GlcNAc(b1-2)Man", "method_in_brief": "as §1"}, "[23]": {"biological_target": "Fuc(a1-2)[Gal(a1-3)]Gal(b1-4)GlcNAc(b1-2)Man(a1-3)[Fuc(a1-2)[Gal(a1-3)]Gal(b1-4)GlcNAc(b1-2)Man(a1-6)]Man(b1-4)GlcNAc(b1-4)GlcNAc", "method_in_brief": "as §1"}, "[24]": {"biological_target": "Fuc(a1-2)[Gal(a1-3)]Gal(b1-4)GlcNAc(b1-2)Man(a1-3)[Fuc(a1-2)[Gal(a1-3)]Gal(b1-4)GlcNAc(b1-2)Man(a1-6)]Man(b1-4)GlcNAc(b1-4)[Fuc(a1-6)]GlcNAc", "method_in_brief": "as §1"}, "[25]": {"biological_target": "Fuc(a1-2)[Gal(a1-3)]Gal(b1-4)GlcNAc(b1-3)GalNAc", "method_in_brief": "as §1"}, "[26]": {"biological_target": "Fuc(a1-2)[Gal(a1-3)]Gal(b1-4)GlcNAc(b1-3)[Fuc(a1-2)[Gal(a1-3)]Gal(b1-4)GlcNAc(b1-6)]GalNAc", "method_in_brief": "as §1"}, "[27]": {"biological_target": "Fuc(a1-2)[Gal(a1-3)]Gal(b1-4)GlcNAc(b1-6)GalNAc", "method_in_brief": "as §1"}, "[28]": {"biological_target": "Fuc(a1-2)[Gal(a1-3)]Gal(b1-4)[Fuc(a1-3)]Glc", "method_in_brief": "as §1"}, "[29]": {"biological_target": "Fuc(a1-2)[Gal(a1-3)]Gal(b1-4)[Fuc(a1-3)]GlcNAc", "method_in_brief": "as §1"}, "[30]": {"biological_target": "Fuc(a1-2)[Gal(a1-3)]Gal(b1-4)[Fuc(a1-3)]GlcNAc(b1-3)GalNAc", "method_in_brief": "as §1"}, "[31]": {"biological_target": "Fuc(a1-2)[Gal(a1-4)]Gal(b1-4)GlcNAc", "method_in_brief": "as §1"}, "[32]": {"biological_target": "Fuc(a1-2)[GalNAc(a1-3)]Gal", "method_in_brief": "as §1"}, "[33]": {"biological_target": "Fuc(a1-2)[GalNAc(a1-3)]Gal(b1-3)GalNAc(a1-3)[Fuc(a1-2)]Gal(b1-4)GlcNAc", "method_in_brief": "as §1"}, "[34]": {"biological_target": "Fuc(a1-2)[GalNAc(a1-3)]Gal(b1-3)GalNAc(b1-3)Gal(a1-4)Gal(b1-4)Glc", "method_in_brief": "as §1"}, "[35]": {"biological_target": "Fuc(a1-2)[GalNAc(a1-3)]Gal(b1-3)GlcNAc", "method_in_brief": "as §1"}, "[36]": {"biological_target": "Fuc(a1-2)[GalNAc(a1-3)]Gal(b1-3)GlcNAc(b1-2)Man(a1-3)[Fuc(a1-2)[GalNAc(a1-3)]Gal(b1-3)GlcNAc(b1-2)Man(a1-6)]Man(b1-4)GlcNAc(b1-4)GlcNAc", "method_in_brief": "as §1"}, "[37]": {"biological_target": "Fuc(a1-2)[GalNAc(a1-3)]Gal(b1-3)GlcNAc(b1-2)Man(a1-3)[Fuc(a1-2)[GalNAc(a1-3)]Gal(b1-3)GlcNAc(b1-2)Man(a1-6)]Man(b1-4)GlcNAc(b1-4)[Fuc(a1-6)]GlcNAc", "method_in_brief": "as §1"}, "[38]": {"biological_target": "Fuc(a1-2)[GalNAc(a1-3)]Gal(b1-3)GlcNAc(b1-3)GalNAc", "method_in_brief": "as §1"}}, "note": "Some of the results follow."}
{"binder": "B1", "values": [{"measurement": "glycan array binding signal (z-score)", "setting": "[1]", "value": 0.739}, {"measurement": "glycan array binding signal (z-score)", "setting": "[2]", "value": -0.19}, {"measurement": "glycan array binding signal (z-score)", "setting": "[3]", "value": -0.074}, {"measurement": "glycan array binding signal (z-score)", "setting": "[4]", "value": -0.582}, {"measurement": "glycan array binding signal (z-score)", "setting": "[5]", "value": 1.47}, {"measurement": "glycan array binding signal (z-score)", "setting": "[6]", "value": -0.018}, {"measurement": "glycan array binding signal (z-score)", "setting": "[7]", "value": -0.518}, {"measurement": "glycan array binding signal (z-score)", "setting": "[8]", "value": -0.164}, {"measurement": "glycan array binding signal (z-score)", "setting": "[9]", "value": 1.54}, {"measurement": "glycan array binding signal (z-score)", "setting": "[10]", "value": -1.48}, {"measurement": "glycan array binding signal (z-score)", "setting": "[11]", "value": 0.933}, {"measurement": "glycan array binding signal (z-score)", "setting": "[12]", "value": 0.241}, {"measurement": "glycan array binding signal (z-score)", "setting": "[13]", "value": -0.061}, {"measurement": "glycan array binding signal (z-score)", "setting": "[14]", "value": -0.582}, {"measurement": "glycan array binding signal (z-score)", "setting": "[15]", "value": 0.694}, {"measurement": "glycan array binding signal (z-score)", "setting": "[16]", "value": -0.005}, {"measurement": "glycan array binding signal (z-score)", "setting": "[17]", "value": -0.318}, {"measurement": "glycan array binding signal (z-score)", "setting": "[18]", "value": -0.239}, {"measurement": "glycan array binding signal (z-score)", "setting": "[19]", "value": -0.427}, {"measurement": "glycan array binding signal (z-score)", "setting": "[20]", "value": -0.289}, {"measurement": "glycan array binding signal (z-score)", "setting": "[21]", "value": -0.349}, {"measurement": "glycan array binding signal (z-score)", "setting": "[22]", "value": -0.549}, {"measurement": "glycan array binding signal (z-score)", "setting": "[23]", "value": 0.991}, {"measurement": "glycan array binding signal (z-score)", "setting": "[24]", "value": -0.508}, {"measurement": "glycan array binding signal (z-score)", "setting": "[25]", "value": -0.594}, {"measurement": "glycan array binding signal (z-score)", "setting": "[26]", "value": 0.307}, {"measurement": "glycan array binding signal (z-score)", "setting": "[27]", "value": -1.1}, {"measurement": "glycan array binding signal (z-score)", "setting": "[28]", "value": 0.116}, {"measurement": "glycan array binding signal (z-score)", "setting": "[29]", "value": -0.591}, {"measurement": "glycan array binding signal (z-score)", "setting": "[30]", "value": -0.45}, {"measurement": "glycan array binding signal (z-score)", "setting": "[31]", "value": -0.241}, {"measurement": "glycan array binding signal (z-score)", "setting": "[32]", "value": -0.016}, {"measurement": "glycan array binding signal (z-score)", "setting": "[33]", "value": -0.326}, {"measurement": "glycan array binding signal (z-score)", "setting": "[34]", "value": -0.009}, {"measurement": "glycan array binding signal (z-score)", "setting": "[35]", "value": -0.207}, {"measurement": "glycan array binding signal (z-score)", "setting": "[36]", "value": 3.99}, {"measurement": "glycan array binding signal (z-score)", "setting": "[37]", "value": -0.184}, {"measurement": "glycan array binding signal (z-score)", "setting": "[38]", "value": -0.886}]}
